Laboratory results: US20220144922A1
These are yes or no findings as the source states them, for the method shown.

Biological target: postfusion RSV F ectodomain, subtype B (respiratory syncytial virus subtype B)
Test: BLI, IgG on sensor

B1: ADI-15558 (antibody, V domains shown)
VH: QVQLVQSGGEVKKPGASVKVSCKASGYTFTTYGISWVRQAPGHGLEWLGWISPKNGNTKYAQKVQGRVTMTIDPTTSTAYMELRSLRSDDTAMYYCARDYIVAIVAALPHGMDVWGQGTLVTVSS
VL: QSVLTQPPSLSVSPGQTASISCSGDQLGNKYVCWYQQKPGQSPVLVIYQDSRRPSGVPERFSGSNSGNTATLTVGGTQPMDEADYYCQAWDSSIRVFGGGTKVTVL
B1 was tested, and the binding was “no binding (tested: BLI response <0.05 nm)”.

B2: ADI-15560 (antibody, V domains shown)
VH: EVQLVESGGGVVQPGRSLRLSCVTSGFIFSNYAMHWVRQAPGKGLEWVAVISFDADNEYYAESVKGRFTISRDNSKNTMYLQMNSLRAGDTALYYCARDPLGIGVKGYVDFWGQGTLVTVSS
VL: SSELSQPPSVSVAPGETARITCGGDNFGSDGLHWYQQKPGQAPVLVIYYDSDRPSGIPERFSGSISGNTATLTISRVEAGDEADYFCQVWDSISDHLVFGGGTKVTVL
For B2, the binding was “no binding (tested: BLI response <0.05 nm)”.
